Source: ChEMBL document CHEMBL3988442, “University of Dundee, Small-Polar-MMV Screening Library” (2021).

Protein sequences, listed by entry. Tags and fused reporters are not part of them. Residues count along the entry.
UniProt Q8IDJ8, 1-583: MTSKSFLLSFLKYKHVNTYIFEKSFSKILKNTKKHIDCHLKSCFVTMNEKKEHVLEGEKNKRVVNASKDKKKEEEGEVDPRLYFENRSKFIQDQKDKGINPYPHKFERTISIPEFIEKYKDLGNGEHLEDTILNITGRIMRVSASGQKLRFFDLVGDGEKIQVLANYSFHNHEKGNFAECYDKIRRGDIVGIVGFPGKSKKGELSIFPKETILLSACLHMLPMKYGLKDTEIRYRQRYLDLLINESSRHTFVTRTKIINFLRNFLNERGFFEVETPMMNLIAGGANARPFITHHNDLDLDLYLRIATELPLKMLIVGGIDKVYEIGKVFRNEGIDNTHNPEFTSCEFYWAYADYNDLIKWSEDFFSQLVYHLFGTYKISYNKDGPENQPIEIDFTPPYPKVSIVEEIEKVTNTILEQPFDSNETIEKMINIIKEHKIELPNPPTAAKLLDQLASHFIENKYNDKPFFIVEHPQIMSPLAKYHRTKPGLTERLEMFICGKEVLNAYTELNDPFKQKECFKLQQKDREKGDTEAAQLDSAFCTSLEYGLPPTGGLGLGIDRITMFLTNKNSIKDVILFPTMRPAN
UniProt Q4DA54, 1-478: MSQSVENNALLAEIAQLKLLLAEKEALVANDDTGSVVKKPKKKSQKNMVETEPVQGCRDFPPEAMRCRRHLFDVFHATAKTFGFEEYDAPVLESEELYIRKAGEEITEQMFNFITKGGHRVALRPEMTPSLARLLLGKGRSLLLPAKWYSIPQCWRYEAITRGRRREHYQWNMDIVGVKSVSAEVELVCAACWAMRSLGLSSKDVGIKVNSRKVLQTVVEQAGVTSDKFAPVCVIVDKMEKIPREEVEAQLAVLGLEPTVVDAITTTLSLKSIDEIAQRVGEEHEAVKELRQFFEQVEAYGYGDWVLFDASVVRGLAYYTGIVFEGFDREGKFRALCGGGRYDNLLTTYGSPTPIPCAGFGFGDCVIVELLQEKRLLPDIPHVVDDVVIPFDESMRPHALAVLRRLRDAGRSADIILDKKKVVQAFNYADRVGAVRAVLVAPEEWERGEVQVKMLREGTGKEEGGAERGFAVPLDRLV
UniProt I6X8D2, whole entry: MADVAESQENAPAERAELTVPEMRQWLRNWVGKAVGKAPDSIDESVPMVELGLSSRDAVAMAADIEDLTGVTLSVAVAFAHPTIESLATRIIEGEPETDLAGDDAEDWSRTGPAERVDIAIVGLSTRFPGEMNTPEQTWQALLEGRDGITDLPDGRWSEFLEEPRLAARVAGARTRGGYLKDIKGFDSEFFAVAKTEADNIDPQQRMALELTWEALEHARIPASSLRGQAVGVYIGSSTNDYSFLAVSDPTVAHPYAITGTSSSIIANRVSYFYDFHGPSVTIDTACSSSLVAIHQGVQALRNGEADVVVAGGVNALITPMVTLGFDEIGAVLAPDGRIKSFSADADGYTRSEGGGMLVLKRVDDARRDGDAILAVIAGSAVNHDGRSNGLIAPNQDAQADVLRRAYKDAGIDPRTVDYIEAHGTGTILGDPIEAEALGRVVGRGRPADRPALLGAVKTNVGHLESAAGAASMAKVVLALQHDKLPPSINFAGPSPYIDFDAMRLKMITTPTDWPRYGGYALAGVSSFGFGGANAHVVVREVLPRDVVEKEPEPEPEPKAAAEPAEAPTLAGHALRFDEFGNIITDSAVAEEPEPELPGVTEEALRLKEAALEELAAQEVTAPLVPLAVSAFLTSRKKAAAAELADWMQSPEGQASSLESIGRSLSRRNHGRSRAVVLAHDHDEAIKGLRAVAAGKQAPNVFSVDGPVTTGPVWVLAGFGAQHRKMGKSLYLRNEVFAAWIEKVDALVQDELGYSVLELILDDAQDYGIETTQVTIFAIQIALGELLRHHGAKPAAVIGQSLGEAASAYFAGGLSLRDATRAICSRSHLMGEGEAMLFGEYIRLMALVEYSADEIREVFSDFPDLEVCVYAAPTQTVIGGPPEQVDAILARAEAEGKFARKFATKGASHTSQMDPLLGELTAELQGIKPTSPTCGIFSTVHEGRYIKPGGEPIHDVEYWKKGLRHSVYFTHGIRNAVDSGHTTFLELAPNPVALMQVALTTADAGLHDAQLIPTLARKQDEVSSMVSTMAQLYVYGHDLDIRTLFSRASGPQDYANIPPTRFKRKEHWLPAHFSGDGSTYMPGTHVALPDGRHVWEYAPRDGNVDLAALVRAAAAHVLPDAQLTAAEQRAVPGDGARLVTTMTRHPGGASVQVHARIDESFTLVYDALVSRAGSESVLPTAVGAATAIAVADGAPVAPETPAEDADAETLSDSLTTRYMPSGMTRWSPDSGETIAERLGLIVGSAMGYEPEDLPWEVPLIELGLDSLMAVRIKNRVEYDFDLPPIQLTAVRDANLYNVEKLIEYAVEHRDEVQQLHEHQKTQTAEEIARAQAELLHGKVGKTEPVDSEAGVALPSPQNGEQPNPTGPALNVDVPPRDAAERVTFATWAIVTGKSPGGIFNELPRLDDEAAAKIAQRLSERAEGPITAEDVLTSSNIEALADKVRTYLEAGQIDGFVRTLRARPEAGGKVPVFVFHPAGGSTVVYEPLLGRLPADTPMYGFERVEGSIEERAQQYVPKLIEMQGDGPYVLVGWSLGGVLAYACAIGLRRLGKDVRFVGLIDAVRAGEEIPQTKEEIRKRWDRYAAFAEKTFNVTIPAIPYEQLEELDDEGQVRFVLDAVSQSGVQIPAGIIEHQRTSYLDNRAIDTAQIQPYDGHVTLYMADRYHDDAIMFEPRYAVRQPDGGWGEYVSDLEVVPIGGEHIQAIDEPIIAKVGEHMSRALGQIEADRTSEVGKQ

Each number is a percent effect as filed. The controls that fix the scale are not given in the record; negative values are as filed. The compounds are a random part of those screened. Two or more numbers in one place are separate tests of the same structure; such repeats can differ widely. A dash means the value is not listed here; it may have been measured.

PfKRS1: 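Lysine-tRNA ligase, Plasmodium falciparum 3D7 (UniProt Q8IDJ8). Enzyme assay of the cytosolic lysyl-tRNA synthetase in 384-well plates, read by luminescence. Compounds at 30 µM. Higher reads as stronger inhibition, judged from the few compounds that gave an IC50. About 69,000 compounds were tested under these conditions; 0.071% (about 49) showed 50% or more at least once.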
TcHisRS: 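Histidine-tRNA ligase, Trypanosoma cruzi CL Brener (UniProt Q4DA54). Enzyme assay of histidyl-tRNA synthetase; the read-out is not stated. Compounds at 30 µM. The record gives no direction; compounds that gave an IC50 in retests scored well above the rest, so higher reads as stronger inhibition. Size under these conditions: about 69,000 compounds, about 31 of them at 50% or above in at least one test.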
Leishmania in macrophages: 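Cell assay of Leishmania donovani living inside macrophages; the read-out is not stated. Concentration: 30 µM. The record gives no direction; compounds that gave an IC50 in retests scored well above the rest, so higher reads as stronger inhibition. Of about 69,000 compounds tested this way, about 1,000 (1.5%) reached 50% or more in at least one test.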
Pks13 thioesterase: 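Enzyme assay of the thioesterase domain of polyketide synthase 13; the read-out is not stated. Target: Polyketide synthase Pks13, Mycobacterium tuberculosis (UniProt I6X8D2). Concentration: 30 µM. The record gives no direction; the compounds picked for IC50 retests had high values, so higher reads as stronger inhibition. About 67,000 compounds were tested under these conditions; 0.46% (about 300) showed 50% or more at least once.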

{"compound": "CC(C)c1noc(CN2CCN(C(=O)c3ccncc3F)CC2)n1", "PfKRS1": 2.553, "TcHisRS": 1.163, "Leishmania in macrophages": 25.95, "Pks13 thioesterase": -1.11}
{"compound": "CN(C)C(C(=O)N1CCN(CC(F)(F)F)CC1)c1ccccc1F", "stereo": "centres undefined", "PfKRS1": -4.352, "TcHisRS": -1.058, "Leishmania in macrophages": -30.98, "Pks13 thioesterase": -7.031}
{"compound": "N[C@H]1CCCN(C(=O)c2cnc(COc3ccccc3)nc2O)C1", "PfKRS1": -1.062, "TcHisRS": 3.175, "Leishmania in macrophages": 4.625, "Pks13 thioesterase": -30.72}
{"compound": "Cc1cnc(C)c(N2CCN(Cc3ccc(-c4cc[nH]n4)o3)CC2)n1", "PfKRS1": -1.624, "TcHisRS": 4.564, "Leishmania in macrophages": 18.55, "Pks13 thioesterase": -4.722}
{"compound": "Cc1cncc(CN2C[C@@H](O)[C@H](Oc3ccccc3)C2)c1", "PfKRS1": 2.821, "TcHisRS": 8.889, "Leishmania in macrophages": "-0.4645 and 25.18", "Pks13 thioesterase": 4.202}
{"compound": "O=C(O)C(F)(F)F.O=C(c1ccccn1)N1CCC2(CC1)C(=O)Nc1ccccc12", "Leishmania in macrophages": -1.917}
{"compound": "[H][C@]12CN(Cc3cccc(F)c3F)C[C@]1([H])N(C1CCOCC1)C(=O)CO2", "Leishmania in macrophages": 6.99}
{"compound": "CN(Cc1ccncc1)C1CC2(CCN(C(=O)c3ccnnc3)CC2)C1", "PfKRS1": 2.761, "TcHisRS": 2.299, "Leishmania in macrophages": 9.125, "Pks13 thioesterase": -19.47}
{"compound": "Cn1cc(C(=O)NCc2cn3c(n2)CN(CC2CCOC2)CC3)cn1", "stereo": "centres undefined", "PfKRS1": 3.778, "TcHisRS": 3.067, "Pks13 thioesterase": 9.518}
{"compound": "CC(CNS(C)(=O)=O)Oc1cccc(Cl)c1", "stereo": "centres undefined", "PfKRS1": 3.344, "TcHisRS": 1.064, "Leishmania in macrophages": 6.182, "Pks13 thioesterase": -25.22}
{"compound": "CN(C)CCNCC1COCc2c(-c3ccnn3C)nnn2C1", "stereo": "centres undefined", "PfKRS1": -2.346, "TcHisRS": -2.116, "Leishmania in macrophages": 14.72, "Pks13 thioesterase": -53.02}
{"compound": "COc1cccc(CN(C)CC(=O)NC2(C)CCS(=O)(=O)C2)c1", "stereo": "centres undefined", "PfKRS1": 1.402, "TcHisRS": 3.39, "Leishmania in macrophages": -0.3505, "Pks13 thioesterase": 3.912}
{"compound": "O=C(c1cc(C2CC2)nc2onc(-c3ccccc3)c12)N1CCOCC1", "PfKRS1": 4.218, "TcHisRS": 9.091, "Leishmania in macrophages": 10.62, "Pks13 thioesterase": -4.926}
{"compound": "O=S(=O)(N1CCOCC1)N1CCCCC1CCn1cccn1", "stereo": "centres undefined", "PfKRS1": 0.5271, "TcHisRS": -24.35, "Leishmania in macrophages": -5.289, "Pks13 thioesterase": 3.14}
{"compound": "O=C1Nc2ccccc2CC12CCN(CCO)C2", "stereo": "centres undefined", "PfKRS1": 6.708, "TcHisRS": 6.897, "Leishmania in macrophages": 9.847, "Pks13 thioesterase": -10.01}
{"compound": "Cc1cc(-n2cnnn2)n2ncnc2n1", "PfKRS1": 1.097, "TcHisRS": -11.56, "Leishmania in macrophages": 33.3, "Pks13 thioesterase": 13.71}
{"compound": "COc1ccc(-c2ncccc2C(=O)N2C[C@H]3CC[C@@H]2C3)cn1", "PfKRS1": 4.071, "TcHisRS": 2.128, "Pks13 thioesterase": -9.324}
{"compound": "CC(C)(C)C(=O)NCCC(=O)NCCc1ccn(-c2ccccc2)n1", "PfKRS1": -0.7905, "TcHisRS": 6.553, "Leishmania in macrophages": 28.17, "Pks13 thioesterase": -16.91}
{"compound": "Cc1ccc(S(=O)(=O)NC(=O)CCc2ccccc2)cc1N(C)C", "PfKRS1": 0.6174, "TcHisRS": 9.278, "Leishmania in macrophages": 0.8164, "Pks13 thioesterase": -9.608}
{"compound": "Cc1ccc2nc(CN(Cc3ccc(C)o3)C(C)C)cc(=O)n2c1", "PfKRS1": 5.974, "TcHisRS": 11.11, "Leishmania in macrophages": 12.55, "Pks13 thioesterase": 19.78}
{"compound": "O=C1CCCN1CCC1CCN(C2CCCNC2)CC1", "stereo": "centres undefined", "PfKRS1": 0.8656, "TcHisRS": 1.064, "Leishmania in macrophages": 5.512, "Pks13 thioesterase": -15.33}
{"compound": "CN(C)[C@@H]1CCN(C(=O)NC2CCCC2)[C@H]1Cc1ccncc1.O=C(O)C(F)(F)F.O=C(O)C(F)(F)F", "Leishmania in macrophages": 21.15}
{"compound": "Cc1nnc2n1CCN(CCOc1ccccc1C#N)C2", "PfKRS1": 0.074, "TcHisRS": 3.944, "Leishmania in macrophages": -22.62, "Pks13 thioesterase": -13.03}
{"compound": "CC(C)N1CC(C(=O)NCCc2csc(-c3ccncc3)n2)CC1=O", "stereo": "centres undefined", "PfKRS1": -0.3283, "TcHisRS": -0.8368, "Leishmania in macrophages": -7.825, "Pks13 thioesterase": -10.08}
{"compound": "CCCC(=O)n1ccn(S(=O)(=O)c2ccc(C)cc2)c1=O", "PfKRS1": 6.338, "TcHisRS": 7.317, "Leishmania in macrophages": "32.13 and 37.11"}
{"compound": "Cc1ccc2c(c1)CCC21CCN(C(=O)CN(C)C)CC1.O=C(O)C(F)(F)F", "Leishmania in macrophages": -16.82}
{"compound": "Cn1cc(CN2CCCN(C(=O)c3cc(Cl)cn3C)CC2)cn1", "PfKRS1": -10, "TcHisRS": 5.703, "Leishmania in macrophages": 45.8, "Pks13 thioesterase": -13.84}
{"compound": "Cc1ccccc1-c1cncc(C2CCN(CC(=O)N(C)C)CC2)n1", "PfKRS1": 1.441, "TcHisRS": 6.667, "Leishmania in macrophages": "-0.8239 and -0.836", "Pks13 thioesterase": -1.706}
{"compound": "CS(=O)(=O)CCN1CCC(Nc2c(Cl)cccc2C#N)CC1", "PfKRS1": 2.424, "TcHisRS": 4.294, "Leishmania in macrophages": 29.85, "Pks13 thioesterase": -3.415}
{"compound": "O=C1CN(C(=O)C2CCCCC2)CC(O)CN1Cc1ccc(Cl)cc1", "stereo": "centres undefined", "PfKRS1": 5.642, "TcHisRS": 10.11, "Leishmania in macrophages": -0.1323, "Pks13 thioesterase": 16.4}
{"compound": "O=C(NCc1nnc2n1CCC2)c1ccc(C2CCCO2)s1", "stereo": "centres undefined", "PfKRS1": 1.021, "TcHisRS": 2.01, "Leishmania in macrophages": 32.56, "Pks13 thioesterase": -15.71}
{"compound": "O=C(O)C(F)(F)F.O=C(O)C(F)(F)F.[H][C@@]12CN(CC3CCOC3)C[C@]1([H])OCCN2CC(=O)NC", "stereo": "some centres undefined", "Leishmania in macrophages": 12.42}
{"compound": "CN(C)S(=O)(=O)N1C[C@@H](OCc2ccccn2)[C@H]2OCCC[C@H]21", "PfKRS1": -2.793, "TcHisRS": 2.151, "Pks13 thioesterase": -30.63}

Once more, the final 3:

| compound | PfKRS1 | TcHisRS | Leishmania in macrophages | Pks13 thioesterase |
|---|---|---|---|---|
| `O=C(NCc1nnc2n1CCC2)c1ccc(C2CCCO2)s1` (centres undefined) | 1.021% | 2.01% | 32.56% | -15.71% |
| `O=C(O)C(F)(F)F.O=C(O)C(F)(F)F.[H][C@@]12CN(CC3CCOC3)C[C@]1([H])OCCN2CC(=O)NC` (some centres undefined) | - | - | 12.42% | - |
| `CN(C)S(=O)(=O)N1C[C@@H](OCc2ccccn2)[C@H]2OCCC[C@H]21` | -2.793% | 2.151% | - | -30.63% |